For at least one compound, name, drawing or mass did not settle the structure.
Tested on: Tumor necrosis factor (TNF) release
Test: TNF release by LPS-stimulated human blood monocytes (ELISA)
Assay type: cell-based
Conditions: all drugs at 40 µM, mean of 5 subjects; Fig. 38
Method: Human monocytes were isolated from the blood of asthmatic patients by Ficoll-paque density gradient, let to adhere to tissue culture plates and stimulated with LPS (100ng/ml) for 18 hours at 37°C with or without increasing concentrations of nicotine. The release of TNF, a potent pro-inflammatory mediator, was measured in the cell culture supernatant by the ELISA method. Results are expressed as a percentage release from LPS-stimulated untreated cells (Fig. 28).
Tumor necrosis factor (TNF) is a mediator released in inflammatory states. Human blood monocytes were stimulated in vitro with lipopolysaccharide (LPS) to produce large amounts of TNF, increasing doses of ASM-002 were added and the levels of TNF were measured (Fig. 37, EC50= 3µM, n=6, p= 0,0045 at 5 µm, 0,0014 at 10 µm and 0,0003 at 50 µm).

In the case of `C[C@@H]1C[C@H]2[C@@H]3CCC4=CC(=O)C=C[C@]4(C)[C@@]3(F)[C@@H](O)C[C@]2(C)[C@@]1(O)C(=O)CO` [dexamethasone, reference compound], the TNF release is reported as “inhibits TNF release”.

Source: patent publication EP1773779B1, “NICOTINIC RECEPTOR AGONISTS FOR THE TREATMENT OF INFLAMMATORY DISEASES” (Université Laval, priority 2004, dated 2006)
